Source: the supplement of paper PMC8728848
This is one part of the list.

Key:
Test in all cases: glycan array binding signal (z-score within array); higher = stronger binding
Conditions in all cases: glycan notation: IUPAC condensed, linker removed
[1] = target: Gal(b1-4)GlcNAc(b1-6)Gal(b1-4)GlcNAc
Procedure, shortened: (§1)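 Columns mapping to the same glycan were averaged after glycan names were converted to IUPAC-condensed notation. The data come from 3228 arrays in the Consortium for Functional Glycomics database, limited to those with an available protein sequence. Binding is reported as a within-array Z-score averaged across arrays of one protein sequence and across linkers.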

[2] = target: Gal(b1-4)GlcNAc(b1-6)GalNAc
Procedure, shortened: as §1

[3] = target: Gal(b1-4)GlcNAc(b1-6)[Gal(b1-3)]GalNAc
Procedure, shortened: as §1

[4] = target: Gal(b1-4)GlcNAc(b1-6)[Gal(b1-4)GlcNAc(b1-3)]GalNAc
Procedure, shortened: as §1

Gal(b1-4)GlcNAc6P = target: Gal(b1-4)GlcNAc6P
Procedure, shortened: as §1

Gal(b1-6)Gal = target: Gal(b1-6)Gal
Procedure, shortened: as §1

Gal3S(b1-3)GalNAc = target: Gal3S(b1-3)GalNAc
Procedure, shortened: as §1

Gal3S(b1-3)GlcNAc = target: Gal3S(b1-3)GlcNAc
Procedure, shortened: as §1

[5] = target: Gal3S(b1-3)[Fuc(a1-4)]GlcNAc
Procedure, shortened: as §1

Gal3S(b1-4)Glc = target: Gal3S(b1-4)Glc
Procedure, shortened: as §1

Gal3S(b1-4)Glc6S = target: Gal3S(b1-4)Glc6S
Procedure, shortened: as §1

Gal3S(b1-4)GlcNAc = target: Gal3S(b1-4)GlcNAc
Procedure, shortened: as §1

[6] = target: Gal3S(b1-4)[Fuc(a1-3)]Glc6S
Procedure, shortened: as §1

[7] = target: Gal3S(b1-4)[Fuc(a1-3)]GlcNAc
Procedure, shortened: as §1

[8] = target: Gal3S(b1-4)[Fuc(a1-3)]GlcNAc6S
Procedure, shortened: as §1

Gal3S4S(b1-4)GlcNAc = target: Gal3S4S(b1-4)GlcNAc
Procedure, shortened: as §1

Gal3S6S(b1-4)GlcNAc = target: Gal3S6S(b1-4)GlcNAc
Procedure, shortened: as §1

Gal3S6S(b1-4)GlcNAc6S = target: Gal3S6S(b1-4)GlcNAc6S
Procedure, shortened: as §1

Gal4S(b1-4)GlcNAc = target: Gal4S(b1-4)GlcNAc
Procedure, shortened: as §1

Gal4S6S(b1-4)GlcNAc = target: Gal4S6S(b1-4)GlcNAc
Procedure, shortened: as §1

Gal6P(b1-4)GlcNAc = target: Gal6P(b1-4)GlcNAc
Procedure, shortened: as §1

Gal6S(b1-3)GlcNAc = target: Gal6S(b1-3)GlcNAc
Procedure, shortened: as §1

Gal6S(b1-3)GlcNAc6S = target: Gal6S(b1-3)GlcNAc6S
Procedure, shortened: as §1

B1: HA-61200 (Pseudomonas aeruginosa), Q02SP8_PSEAB (protein)
chain: MNKCYALVWNVSQGCWNVVSEGSRRRGKPAGAKAAIASVLALLGATALAPAYALPSGGTVVGGSANGEIHLSGGNSLSVNQKVDKLIANWDSFSVAAGERVIFNQPSSSSIALNRVIGTKASDIQGRIDANGQVFLVNPNGVLFGRGAQVNVGGLVASTLDITDAEFNGNSSRYRFTGPSTNGVLNHGGAITAAEGGSIALLGAQVDNRGTVLAQMGGVGLGAGSDLTLNFDGNKLLDIRVDAGVANALASNGGLLKADGGRVLMAARTANALLNTVVNSQGAIEARSLRGKNGRIVLDG
Question: For B1, which “glycan array binding signal (z-score)” value [1] is on record?
Answer: The value was -0.569.

Question: What about the “glycan array binding signal (z-score)” value [2] of the same binder?
Answer: The value was 0.119.

Question: What about the “glycan array binding signal (z-score)” value [3] of the same binder?
Answer: Its value is 0.041.

Question: And the “glycan array binding signal (z-score)” value [4]?
Answer: The value was 0.009.

Question: And the “glycan array binding signal (z-score)” value (Gal(b1-4)GlcNAc6P)?
Answer: Its value is -0.567.

Question: What about the “glycan array binding signal (z-score)” value (Gal(b1-6)Gal) of the same binder?
Answer: Its value is 0.023.

Question: And the “glycan array binding signal (z-score)” value (Gal3S(b1-3)GalNAc)?
Answer: The value was 1.45.

Question: And the “glycan array binding signal (z-score)” value (Gal3S(b1-3)GlcNAc)?
Answer: Its value is -0.794.

Question: What about the “glycan array binding signal (z-score)” value [5] of the same binder?
Answer: The value was 0.232.

Question: And the “glycan array binding signal (z-score)” value (Gal3S(b1-4)Glc)?
Answer: The value was 0.822.

Question: What about the “glycan array binding signal (z-score)” value (Gal3S(b1-4)Glc6S) of the same binder?
Answer: Its value is -0.263.

Question: And the “glycan array binding signal (z-score)” value (Gal3S(b1-4)GlcNAc)?
Answer: The value was -0.009.

Question: And the “glycan array binding signal (z-score)” value [6]?
Answer: Its value is 1.15.

Question: And the “glycan array binding signal (z-score)” value [7]?
Answer: The value was 0.034.

Question: And the “glycan array binding signal (z-score)” value [8]?
Answer: The value was -0.081.

Question: And the “glycan array binding signal (z-score)” value (Gal3S4S(b1-4)GlcNAc)?
Answer: Its value is -0.879.

Question: And the “glycan array binding signal (z-score)” value (Gal3S6S(b1-4)GlcNAc)?
Answer: Its value is 2.33.

Question: What about the “glycan array binding signal (z-score)” value (Gal3S6S(b1-4)GlcNAc6S) of the same binder?
Answer: Its value is 0.707.

Question: And the “glycan array binding signal (z-score)” value (Gal4S(b1-4)GlcNAc)?
Answer: Its value is -0.564.

Question: What about the “glycan array binding signal (z-score)” value (Gal4S6S(b1-4)GlcNAc) of the same binder?
Answer: The value was 0.034.

Question: And the “glycan array binding signal (z-score)” value (Gal6P(b1-4)GlcNAc)?
Answer: The value was -0.318.

Question: What about the “glycan array binding signal (z-score)” value (Gal6S(b1-3)GlcNAc) of the same binder?
Answer: Its value is -0.566.

Question: And the “glycan array binding signal (z-score)” value (Gal6S(b1-3)GlcNAc6S)?
Answer: Its value is -0.233.
